Entries after “also recorded” stand apart in the source; their conditions may differ. At least one structure is not confirmed: it was looked up by name or label, or the drawing left a doubt.
What was measured:
CD138+ myeloma cells = assay: Unsorted myeloma patient bone marrow, flow cytometry: CD138+ myeloma cells; format: cell-based, human
Protocol: Flow cytometry. HMCL were treated as indicated and then washed in cold phosphate-buffered saline (PBS) and resuspended in buffer containing AnnexinV-FITC and propidium iodide (BD Biosciences, San Jose, Calif.) for 15 minutes at room temperature. Cells (10^5) were subsequently diluted and analyzed immediately by flow cytometry (FACScan, BD Biosciences, San Jose, Calif.) using CellQuest software. Patient bone marrow specimens were prepared and analyzed in a similar fashion using AnnexinV-FITC and anti-CD138-PE (BD Biosciences, San Jose, Calif.).
As mouse embryos that lack any D-cyclins eventually die from hematopoietic failure (Kozar et al., Cell, 118, 477-91 (2004)), the bone marrow might be predicted to be one of the most sensitive non-malignant tissue to be affected by drugs targeting cyclin D expression. Unsorted bone marrow samples from myeloma patients were treated with kinetin riboside to assess the relative cytotoxicity of this drug on malignant versus non-malignant marrow cells. Bone marrow samples were first processed to remove non-nucleated red cells and were then treated for 48 hours with kinetin riboside (5 μM).

CCND2 promoter = assay: CCND2 promoter-luciferase transactivation assay in NIH3T3 cells with or without c-maf; format: cell-based, mouse
Protocol: Using this assay, Lopac (n=1280), Prestwick (n=1120), and Spectrum (n=2000) libraries of drugs and natural compounds were screened. In a parallel MTS assay, the effect of each compound on 3T3 viability was determined, allowing exclusion of compounds that caused secondary suppression of CCND2 due to non-specific cytotoxicity. […] These included monensin, patulin, β-lapachone, camptothecin, dihydrogambogic acid, gentian violet, thapsigargin, brefeldin A, pristimerin, and kinetin riboside.
Full-length c-maf cDNA was subcloned into an IRES-GFP MIEV retroviral vector and introduced into NIH3T3 cells by infection. Stable clones expressing GFP and c-maf were selected by flow cytometry and immunoblotting, respectively. The promoter of human cyclin D2 (−894 to −4; Brooks et al., J. Biol. Chem., 271, 9090-9 (1996)), containing c-maf responsive element sequence (MARE), was cloned from DNA from HeLa cells and inserted into the pGLbasic firefly luciferase vector (Promega, Madison, Wis.) immediately upstream of the luciferase gene. This construct was co-transfected with pcDNA3 (containing a neomycin resistance gene) into both NIH3T3 wild type cells and NIH3T3 cells stably over-expressing c-maf-IRES-GFP. Cells stably expressing c-maf, GFP, and luciferase were selected.
NIH3T3 cells stably expressing c-maf and the CCND2 promoter driving luciferase (13,000 cells per well) were plated in 96-well plates by a Biomek FX liquid handler (Beckman, Fullerton, Calif.). […]
Luciferase assay. Luciferase activity was assessed according to the manufacturer's instructions (Promega, Madison, Wis.). […] After a 10-minute incubation, an equal volume of Bright-Glo Luciferase substrate (Promega) was added, and luminescence signal was detected with a 96-well Luminoskan luminescence plate reader (Thermo Labsystem, Waltham, Mass.) using a 5 second integration. […]

caspase 9 = assay: Immunoblot of caspase 9 cleavage in HMCL; format: cell-based, human; details: H929, 0.5 μM
Protocol: Immunoblotting. Cytosolic extracts were prepared from HMCL or purified patient CD138^+ myeloma cells following exposure to kinetin riboside. Cells were washed with cold PBS, resuspended in cold RIPA buffer (5×10^6 cells/100 μL) containing fresh protease and phosphatase inhibitors (Santa Cruz Biotechnology, Santa Cruz, Calif.) and incubated on ice for 30 minutes with gentle mixing. The supernatant was repossessed following high speed centrifugation, and protein concentrations were determined by the Bradford assay. Immunoblot assays were performed as described elsewhere (Krajewski et al., Anal. Biochem., 236:221-228 (1996)). Briefly, equal amounts of protein were separated by SDS-PAGE and transferred to a PVDF nitrocellulose membrane using a semi-dry apparatus. Membranes were blocked using 5% skim milk in Tris buffered saline and probed with monoclonal mouse anti-cyclin D1 (DCS-6, Biosource, Camarillo, Calif.), polyclonal rabbit anti-cyclin D2 (#2924, Cell Signalling Technology), monoclonal mouse anti-cyclin D3 (DCS-22, BioSource), polyclonal rabbit anti-c-Maf (M-153, Santa Cruz), polyclonal rabbit anti-Cleaved Caspase 9 (Asp315) (Cell Signaling Technology), monoclonal mouse anti-β-actin (Cell Signaling Technology) and/or monoclonal anti-a-tubulin (B-7)(Santa Cruz Biotechnology, Santa Cruz, Calif.). […]

[1] = system: cyclin D1, cyclin D2, cyclin D3; assay: Immunoblot of cyclin D proteins in HMCL; format: cell-based, human
Protocol: Immunoblotting. Cytosolic extracts were prepared from HMCL or purified patient CD138^+ myeloma cells following exposure to kinetin riboside. Cells were washed with cold PBS, resuspended in cold RIPA buffer (5×10^6 cells/100 μL) containing fresh protease and phosphatase inhibitors (Santa Cruz Biotechnology, Santa Cruz, Calif.) and incubated on ice for 30 minutes with gentle mixing. The supernatant was repossessed following high speed centrifugation, and protein concentrations were determined by the Bradford assay. Immunoblot assays were performed as described elsewhere (Krajewski et al., Anal. Biochem., 236:221-228 (1996)). Briefly, equal amounts of protein were separated by SDS-PAGE and transferred to a PVDF nitrocellulose membrane using a semi-dry apparatus. Membranes were blocked using 5% skim milk in Tris buffered saline and probed with monoclonal mouse anti-cyclin D1 (DCS-6, Biosource, Camarillo, Calif.), polyclonal rabbit anti-cyclin D2 (#2924, Cell Signalling Technology), monoclonal mouse anti-cyclin D3 (DCS-22, BioSource), polyclonal rabbit anti-c-Maf (M-153, Santa Cruz), polyclonal rabbit anti-Cleaved Caspase 9 (Asp315) (Cell Signaling Technology), monoclonal mouse anti-β-actin (Cell Signaling Technology) and/or monoclonal anti-a-tubulin (B-7)(Santa Cruz Biotechnology, Santa Cruz, Calif.). Membrane proteins were visualized using HRP-conjugated species-specific secondary antibodies (Cell Signaling Technology) and enhanced chemiluminescence (Pierce, Rockford, Ill.).

HMCL = assay: Cell cycle profiling of HMCL by flow cytometry; format: cell-based, human; details: H929 and U266, 0.5 μM, 20 hours
Protocol: Cell cycle profiling. HMCL were incubated with drug or vehicle as indicated, washed and resuspended in 1 mL PBS. Ice cold ethanol was added dropwise to 75% with regular mixing, and suspensions were incubated at −20° C. for 1 hour. Cells were washed again with PBS and resuspended in 0.1 mL RNAse A (100 μg/mL) at room temperature for 5-10 minutes. Propidium iodide (200 μL×100 μg/mL) was added immediately prior to analysis by flow cytometry. Cellular aggregates were excluded using CellQuest Doublet Discriminator Module, and cell cycle profile was determined using ModFit LT Mac 3.1 SP2 (Verity Software House, TopSham, Me.).

RPMI-8226 HMCL cells = assay: RPMI-8226 xenograft in BNX mice, pristimerin; format: in vivo; details: 2.5 mg/kg/day for 3 days, response on days 3 and 5

`COC(=O)[C@]1(C)CC[C@]2(C)CC[C@]3(C)C4=CC=C5C(=CC(=O)C(O)=C5C)[C@]4(C)CC[C@@]3(C)[C@@H]2C1` [pristimerin] was tested, and the “apoptosis of primary myeloma cells (caspase 9 cleavage, Annexin V binding)” value (CD138+ myeloma cells; primary myeloma cells) was “induces apoptosis”, the “activity against CD138+ myeloma cells compared with non malignant hematopoietic cells” value (CD138+ myeloma cells; unsorted myeloma patient bone marrow samples) was “selective activity” and the “time course of suppression of CCND2-driven luciferase” value (CCND2 promoter; NIH3T3) was “rapid and considerable suppression of CCND2”. The “suppression of CCND2 promoter in absence or presence of c-maf” value (CCND2 promoter; NIH3T3 CCND2-luc with or without c-maf) was “c-maf independent specific suppression of the CCND2 promoter”, the “identified as putative inhibitor of CCND2 transactivation (screen hit)” value (CCND2 promoter; ~5 μM, 16 hours, hit = 50% or more reduction in luciferase relative to cell viability) was “putative CCND2 inhibitors; also recorded: putative suppressors of CCND2” and the “time of induction of caspase cleavage” value (caspase 9) was 2 to 6 h. The “cyclin D protein levels in HMCL” value ([1]; 0.5 μM, 16 hours) was “suppressive effects”, the “time to suppression of cyclin D proteins” value ([1]; H929, 0.5 μM) was no more than 6 h and the “time to inhibition of cyclin D1, D2 and D3 expression” value ([1]; nanomolar concentrations) was less than 6 h. The cell cycle profile (HMCL) was “cell cycle arrest (at G0/G1, preventing S-phase entry)” and the “activity against RPMI-8226 xenograft” value (RPMI-8226 HMCL cells) was “Tumorical activity”.
